This note sets out measurements from PMC4871572.

These are yes or no findings as the source states them, for the method shown. In cells and extracts the contact can be indirect. Some results given as binding are weak or reduced against the parent protein; the word gives no strength. Sequences can lack the tags named with a protein.

The chains are these.
T1: EGFP-tagged rat EIPR1 (rat) (UniProt Q5PPK9)
T1 sequence: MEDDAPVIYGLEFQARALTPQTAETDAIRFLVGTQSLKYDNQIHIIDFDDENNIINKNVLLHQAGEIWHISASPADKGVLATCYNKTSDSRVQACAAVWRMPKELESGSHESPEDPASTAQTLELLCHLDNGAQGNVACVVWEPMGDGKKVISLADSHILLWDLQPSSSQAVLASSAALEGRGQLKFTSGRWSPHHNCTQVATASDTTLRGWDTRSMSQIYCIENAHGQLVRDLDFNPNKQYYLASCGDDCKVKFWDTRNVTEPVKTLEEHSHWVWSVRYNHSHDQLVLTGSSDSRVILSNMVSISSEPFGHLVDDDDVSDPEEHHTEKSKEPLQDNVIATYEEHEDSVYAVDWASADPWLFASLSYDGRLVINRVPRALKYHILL

B1: mCherry-tagged rat VPS51 (protein, UniProt F1M4I4 1-782)
chain: MAAAAAVGPGLGSGPGDSPEGSEADAPERRRKAHGMLKLYYGLSEGEATGHSAGSDPLDPTDLNGAHFDPEVYLDKLRRECPLAQLMDSETDMVRQIRALDSDMQTLVYENYNKFISATDTIRKMKNDFRKMEDEMDRLATNMAVITNFSARISATLQDRHERITKLAGVHALLRKLQFLFELPSRLTKCVELGAYGQAVRYQGRARAVLQQYQHLPSFRAIQDDCQVITARLAQQLRQRFREGCSGAPEQAECVELLLALGEPAEELCEEFLAHARGRLEEELSSLETELGPSPPAPDVLEFTDRGGNGFVGGLCQVAAAYQELFAAQGPAGAEKLAAFAQELGGRYFALVERRLAQEQGGSDNSLLVRALDRFHRRLRAPGALLAAAGLSESATEIVERVARERLSHHLQGLKAAFLSCLTDVRQALAAPRLAGKEGPSLAELLANVASSILSHIKASLASVHLFTAKEVSFSNKPYFRGEFCSQGVREGLIVGFIRSMCQTAQGFCDSPGEKGGATPPALLLLLSRLCLDYETATISYILTLTDEQFLVQDQSPVTPVSTLCAEARETARRLLTHYVKVQGLVISQMLRKSVETRDWLSTLEPRNVRAVMKRVVEDTTAIDVQVGLLYEEGVRKAQSSDSSKRTFSVYSSSRQQGRYAPSYTPSAPMDTNLLSNIQKLFSERIDVFSPVEFNKVSVLTGIIKISLKTLLECVRLRTFGRFGLQQVQVDCHFLQLYLWRFVADEELVHLLLDEVVASAALRCPDPVPMEPSVVEVICERG
B2: VPS50 (protein, UniProt F1LSG8 1-964)
chain: MQKIKSLMTRQGLKSPPESLNDLGAFESLRVPGKEEFRELREQPSDPQAEQELINSIEQVYFSADPFDIVKYELEKLPPVLNLQELEEYRDKLKQQQAAVSKKVADLILEKQPAYVKELERVTSLQTGLQLAAVICTNSRRHLNIAKEGFTQASLGLLANQRKRQLLIGLLKSLRTIKTLQRTDVRLSEMLEEEDYPGAIQLCLECQKAASTFKHYSCISELNSKLQDTLEQIEEQLDVALSKICKNFDVNHYTKVQQAYRLLGKTQTAMDQLHMHFTQAIHNTVFQVVLGYVELCAGNTDTKFQKLQYKDLCTHVTPDSYIPCLADLCKALWEVMLSYYRTMEWHEKHDSEETAAASEGSNVMSTEETNFDRGYVKKKLEHGLTRIWQDVQLKVKTYLLGTDLSIFKYDDFIFVLDIVSRLMQVGEEFCGSKSEVLQESIRKQSINYFKNHHRIRLDELRMFLENETWELCPVKSNFSILQLHEFKFLEQSRSPSVSPSKQPSATSSKPVTLFEQYCSGGNPFEIQADHKDEETEDVLASNGYESDEQEKSAYQDYDSDSDVPEELKRDYVDEQTGDVPVKSVSRETLKSRKKSDYSLNKVNAPILTNTTLNVIRLVGKYMQMMNILKPIAFDVIHFMSQLFDYYLYAIYTFFGRNDSLESTGLGLSSSRLRTTLNRIQESLIDLEGSADPTATLTAAEERKEKVPSPHLNQLVILTSGDTLYGLAERVVATESLVFLAEQFEFLQPHLDAVMPAVKKPFLQQFYSQTVSTASELRKPIYWIVAGKAIDYEQMLLLMTNVKWDVKEIMSQHNVYVDALLKEFEQFNKRLNEVSKRVRIPLPVSNILWEHCIRLANRTIVEGYANVKKCSNEGRALMQLDFQQFLMKLEKLTDIRPIPDKEFVEIYIKAYYLTENDMERWIKEHREYSTKQLTNLVNVCLGSHINKKARQKLLAAIDDIDRPKR
B3: SNAP29 (protein, UniProt Q9Z2P6 1-257)
chain: MSGYPKSYNPFDDDVEDEDTRPAPWKDARDLPDGPDPPIDRQQYLRQEVLRGPSATAASTSRSLFLMYESEKIGVASSEELVRQRGVLEHTEKMVDKMDQDLKMSQKHINSIKSVFGGFINYFKSKPVEPPPEQNGSIVPQPSSRLKEAINTSKDQESKYQASHPNLRRLHDAELDSVPASTVNTEVYPKNSSLRAYHQKIDSNLDELSVGLGRLKDIALGMQTEIEEQDDILDRLTTKVDKLDVNIKSTEKKVRQL

For this assay, the target named is T1, EGFP-tagged rat EIPR1 (rat). The assay can be described thus: co-IP; 832/13 cells transfected with EIPR1::EGFP or EGFP (with or without VPS51::mCherry); lysates incubated with anti-GFP nanobody magnetic beads, washed three times with lysis buffer (50 mM Tris pH 7.5, 150 mM NaCl, 1% NP-40); immunoblot with anti-mCherry, anti-VPS50 or anti-SNAP29.
B1: the binding result is listed as “binds”.
In the case of B2, the binding result was “binds”.
For the molecule B3, the binding entry is recorded as “binds”.
